PubChem BioAssay AID1259254 – NCATS | 2017
Here is an unselected part of about 59,000 deposited reagents. Over the whole deposit, about 1,550 (2.6%) were called active. 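G2 share is only a proxy for re-replication; each gene was hit by three separate siRNAs, and active genes were retested.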 Entries without a mark were called inactive. Reagents against one gene are numbered here. Not all columns of the deposit are shown. Not stated in the record: the amount of reagent.

Aim: 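Gene knock-downs that lead to re-replication, shown by excess G2 DNA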 (primary screen)
System: human HCT116 colorectal cancer cells
Reagents: single siRNA against human genes
Duration: 3 days
Detection: 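Nuclei stained with Hoechst and imaged; cell-cycle phase assigned by DNA content; G2 share scaled per plate, non-targeting siRNA 0%, GMNN siRNA 100%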
Direction: G2 robust z-score and G2 cells, % of GMNN control: higher = more G2 cells, more excess DNA replication
Rule for the call: 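Active siRNAs have a G2 robust z of 5 or more median absolute deviations over the median, which in these data means about 38% or higher of GMNN control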

N4BP2L1 #1 | G2 robust z-score: -1.2; G2 cells, % of GMNN control: -5.48
N4BP2L1 #2 | G2 robust z-score: 9.32 (active); G2 cells, % of GMNN control: 68.6
N4BP2L1 #3 | G2 robust z-score: 0.852; G2 cells, % of GMNN control: 8.96
SDHCP5 #1 | G2 robust z-score: -0.181; G2 cells, % of GMNN control: 1.69
SDHCP5 #2 | G2 robust z-score: -1.33; G2 cells, % of GMNN control: -6.42
SDHCP5 #3 | G2 robust z-score: -0.471; G2 cells, % of GMNN control: -0.349
PALS2 #1 | G2 robust z-score: -0.552; G2 cells, % of GMNN control: -0.918
PALS2 #2 | G2 robust z-score: -0.0558; G2 cells, % of GMNN control: 2.57
PALS2 #3 | G2 robust z-score: 0.483; G2 cells, % of GMNN control: 6.37
FSCN1 #1 | G2 robust z-score: -0.631; G2 cells, % of GMNN control: -1.47
FSCN1 #2 | G2 robust z-score: 0.571; G2 cells, % of GMNN control: 6.98
FSCN1 #3 | G2 robust z-score: 0.92; G2 cells, % of GMNN control: 9.44
INA #1 | G2 robust z-score: 0.959; G2 cells, % of GMNN control: 9.71
INA #2 | G2 robust z-score: -1.04; G2 cells, % of GMNN control: -4.37
INA #3 | G2 robust z-score: -0.574; G2 cells, % of GMNN control: -1.07
FBXL4 #1 | G2 robust z-score: -0.544; G2 cells, % of GMNN control: -0.861
FBXL4 #2 | G2 robust z-score: -0.0674; G2 cells, % of GMNN control: 2.49
FBXL4 #3 | G2 robust z-score: 0.12; G2 cells, % of GMNN control: 3.81
MGST2 #1 | G2 robust z-score: -0.686; G2 cells, % of GMNN control: -1.86
MGST2 #2 | G2 robust z-score: -0.0786; G2 cells, % of GMNN control: 2.41
MGST2 #3 | G2 robust z-score: -1.25; G2 cells, % of GMNN control: -5.8
ZNF20 #1 | G2 robust z-score: 0.239; G2 cells, % of GMNN control: 4.65
ZNF20 #2 | G2 robust z-score: -0.461; G2 cells, % of GMNN control: -0.279
ZNF20 #3 | G2 robust z-score: 0.466; G2 cells, % of GMNN control: 6.25
LOC729187 (retired record) #1 | G2 robust z-score: -0.0759; G2 cells, % of GMNN control: 2.43
LOC729187 (retired record) #2 | G2 robust z-score: 0.1; G2 cells, % of GMNN control: 3.67
LOC729187 (retired record) #3 | G2 robust z-score: -0.0804; G2 cells, % of GMNN control: 2.4
SIGLEC6 #1 | G2 robust z-score: -0.0554; G2 cells, % of GMNN control: 2.58
SIGLEC6 #2 | G2 robust z-score: -1.05; G2 cells, % of GMNN control: -4.44
SIGLEC6 #3 | G2 robust z-score: -0.477; G2 cells, % of GMNN control: -0.385
